Results reported in US7198958B2, “Method for increasing hydrophilicity of fluorescent label compounds” (Arctic Diagnostics Oy, priority 2001, dated 2007).

System: mouse IgG anti-AFP
Experiment: Labelling of mouse IgG anti-AFP with dipyrrometheneboron difluoride dyes
Type: physicochemical
Details: determined spectrophotometrically; 10 fold excess of label
Experimental: To the solution of 1.5 mg (9.3 nmol) of mouse IgG anti-AFP in 400 μl phosphate buffered saline (10/150 mM, pH 7.4) a 10 fold excess (93 nmol) of compound 2, 4, 5 or 6 in anhydrous N,N-dimethylformamide was added. 40 μl of NaHCO3 (1 M, aq) was added and the mixture was incubated at room temperature for 2 h. The products were purified with NAP-5 gel filtration column (Amersham Pharmacia Biotech, Uppsala, Sweden) using phosphate buffered saline (50/150, 10 mM NaN3, pH 7.4) as eluent. The fast moving coloured fractions were collected. […] The labelling degrees of these protein conjugates (compound 4 and 6) were determined spectrophotometrically. Labelling degrees of 2.1 (compound 4) and 2.3 (compound 6) fluorophores per protein were obtained.

For “Glu-Tau-succinimide derivative of 4,4-difluoro-5-(2-thienyl)-1,3-dimethyl-4-bora-3a,4a-diaza-s-indacene-2-propionic acid [compound 4]”, the labelling degree was 2.1 fluorophores per protein.

“Glu-Tau-succinimide derivative of 4,4-difluoro-5-(2-pyrrolyl)-1,3-dimethyl-4-bora-3a,4a-diaza-s-indacene-2-propionic acid [compound 6]” gave a labelling degree of 2.3 fluorophores per protein.
